For one substance, binding results are on record in paper PMC12485490.

By UniProt entry, the sequences of proteins in these tests, tags left out.
UniProt P0AAI3: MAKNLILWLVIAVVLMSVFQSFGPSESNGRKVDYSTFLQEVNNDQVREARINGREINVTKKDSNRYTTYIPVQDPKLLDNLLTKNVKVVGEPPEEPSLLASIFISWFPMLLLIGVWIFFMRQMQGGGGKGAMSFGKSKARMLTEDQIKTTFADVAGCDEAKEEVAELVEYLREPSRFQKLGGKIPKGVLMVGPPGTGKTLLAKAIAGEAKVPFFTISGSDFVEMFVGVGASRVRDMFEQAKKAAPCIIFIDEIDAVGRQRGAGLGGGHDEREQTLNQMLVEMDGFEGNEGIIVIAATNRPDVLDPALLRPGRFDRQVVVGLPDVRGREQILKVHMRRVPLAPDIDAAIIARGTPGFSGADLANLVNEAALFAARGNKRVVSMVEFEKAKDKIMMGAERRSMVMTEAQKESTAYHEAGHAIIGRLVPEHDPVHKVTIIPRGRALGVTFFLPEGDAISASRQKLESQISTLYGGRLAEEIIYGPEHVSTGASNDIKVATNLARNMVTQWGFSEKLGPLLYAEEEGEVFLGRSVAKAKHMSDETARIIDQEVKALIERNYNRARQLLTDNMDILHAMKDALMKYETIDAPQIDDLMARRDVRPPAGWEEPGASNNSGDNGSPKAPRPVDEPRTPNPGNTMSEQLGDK

These are yes or no findings as the source states them, for the method shown. Binding seen in cells or lysates may run through a third protein. Some binding calls cover weakened binding; strength is not graded here. Where a sequence is shown, tags or fusion partners need not be part of it.

The target in this assay is T1, YidC with a C-terminal 10xHis tag (Escherichia coli) (UniProt P25714).
T1 sequence: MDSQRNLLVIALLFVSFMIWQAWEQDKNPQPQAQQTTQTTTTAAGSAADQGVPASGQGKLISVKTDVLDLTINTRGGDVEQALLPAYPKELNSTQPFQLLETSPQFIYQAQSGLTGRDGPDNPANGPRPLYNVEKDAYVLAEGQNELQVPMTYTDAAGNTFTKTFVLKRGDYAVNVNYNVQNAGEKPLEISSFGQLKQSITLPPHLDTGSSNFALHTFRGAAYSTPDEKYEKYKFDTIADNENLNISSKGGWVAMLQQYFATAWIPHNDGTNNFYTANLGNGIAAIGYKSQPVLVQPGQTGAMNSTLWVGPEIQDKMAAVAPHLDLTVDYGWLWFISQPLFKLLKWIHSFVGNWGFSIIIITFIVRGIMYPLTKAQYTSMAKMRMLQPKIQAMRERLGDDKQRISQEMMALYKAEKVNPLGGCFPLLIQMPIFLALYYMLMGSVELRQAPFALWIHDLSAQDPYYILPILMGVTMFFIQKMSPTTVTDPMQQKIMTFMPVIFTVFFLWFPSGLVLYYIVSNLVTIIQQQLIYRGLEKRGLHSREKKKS
In words: pull-down; Ni-NTA affinity purification by the 10xHis tag of YidC from DDM-solubilised, DSP-cross-linked membranes of E. coli C43 (DE3), washes with 1 M NaCl and 50 mM imidazole, then SEC (Superose 6 Increase); 20 mM HEPES pH 7.5; partners found by Western blot and SDS-PAGE or by cryo-EM 2D class averages of the SEC fractions. For orientation: In western blotting, separated proteins are transferred to a membrane and probed.

Consider “FtsH with a C-terminal 3xStrepTag II (from UniProt P0AAI3 1-644) (enzyme)”, for which the binding entry is reported as “binds”.
